Laboratory results taken from article PMC8997160.
Results are given in words; binding and its absence hold for the method and conditions named. Binding seen in cells or lysates may run through a third protein. These calls come from enrichment with a bait or labelling near it, and not all partners need be listed.

By UniProt entry, the sequences of proteins in these tests, tags left out.
UniProt O95067: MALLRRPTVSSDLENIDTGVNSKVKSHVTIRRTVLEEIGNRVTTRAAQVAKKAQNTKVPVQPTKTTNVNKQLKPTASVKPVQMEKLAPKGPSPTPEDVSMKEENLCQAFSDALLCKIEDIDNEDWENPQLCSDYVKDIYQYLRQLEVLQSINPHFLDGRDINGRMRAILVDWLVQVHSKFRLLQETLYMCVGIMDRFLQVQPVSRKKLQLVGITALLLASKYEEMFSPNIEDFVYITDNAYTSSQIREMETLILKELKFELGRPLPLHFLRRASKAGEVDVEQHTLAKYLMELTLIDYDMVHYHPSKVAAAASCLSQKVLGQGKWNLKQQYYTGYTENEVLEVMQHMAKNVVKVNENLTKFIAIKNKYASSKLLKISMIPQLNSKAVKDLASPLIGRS
UniProt P24385: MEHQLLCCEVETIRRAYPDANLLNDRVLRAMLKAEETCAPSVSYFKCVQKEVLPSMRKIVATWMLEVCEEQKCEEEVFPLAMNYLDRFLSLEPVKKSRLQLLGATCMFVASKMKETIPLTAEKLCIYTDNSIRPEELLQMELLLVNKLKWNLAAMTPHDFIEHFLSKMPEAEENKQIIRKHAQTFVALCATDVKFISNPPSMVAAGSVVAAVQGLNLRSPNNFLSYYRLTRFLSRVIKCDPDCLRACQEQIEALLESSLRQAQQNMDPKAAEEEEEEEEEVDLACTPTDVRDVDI

T1: SMYD3 (human (endogenous in D283)) (UniProt Q9H7B4)
T1 sequence: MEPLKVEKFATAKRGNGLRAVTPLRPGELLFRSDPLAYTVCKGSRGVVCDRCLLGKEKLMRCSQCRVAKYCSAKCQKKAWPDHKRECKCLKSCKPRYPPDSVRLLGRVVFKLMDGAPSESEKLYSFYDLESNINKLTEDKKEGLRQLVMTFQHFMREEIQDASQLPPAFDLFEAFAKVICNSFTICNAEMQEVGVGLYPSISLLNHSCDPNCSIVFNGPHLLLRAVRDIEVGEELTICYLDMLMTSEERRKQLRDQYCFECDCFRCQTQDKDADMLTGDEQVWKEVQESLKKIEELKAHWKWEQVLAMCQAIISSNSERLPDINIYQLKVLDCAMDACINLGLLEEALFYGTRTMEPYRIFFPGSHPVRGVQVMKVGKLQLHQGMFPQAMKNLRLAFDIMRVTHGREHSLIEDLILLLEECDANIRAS

B1: KDM2A (protein, UniProt Q9Y2K7 1-1162)
chain: MEPEEERIRYSQRLRGTMRRRYEDDGISDDEIEGKRTFDLEEKLHTNKYNANFVTFMEGKDFNVEYIQRGGLRDPLIFKNSDGLGIKMPDPDFTVNDVKMCVGSRRMVDVMDVNTQKGIEMTMAQWTRYYETPEEEREKLYNVISLEFSHTRLENMVQRPSTVDFIDWVDNMWPRHLKESQTESTNAILEMQYPKVQKYCLMSVRGCYTDFHVDFGGTSVWYHIHQGGKVFWLIPPTAHNLELYENWLLSGKQGDIFLGDRVSDCQRIELKQGYTFVIPSGWIHAVYTPTDTLVFGGNFLHSFNIPMQLKIYNIEDRTRVPNKFRYPFYYEMCWYVLERYVYCITNRSHLTKEFQKESLSMDLELNGLESGNGDEEAVDREPRRLSSRRSVLTSPVANGVNLDYDGLGKTCRSLPSLKKTLAGDSSSDCSRGSHNGQVWDPQCAPRKDRQVHLTHFELEGLRCLVDKLESLPLHKKCVPTGIEDEDALIADVKILLEELANSDPKLALTGVPIVQWPKRDKLKFPTRPKVRVPTIPITKPHTMKPAPRLTPVRPAAASPIVSGARRRRVRCRKCKACVQGECGVCHYCRDMKKFGGPGRMKQSCVLRQCLAPRLPHSVTCSLCGEVDQNEETQDFEKKLMECCICNEIVHPGCLQMDGEGLLNEELPNCWECPKCYQEDSSEKAQKRKMEESDEEAVQAKVLRPLRSCDEPLTPPPHSPTSMLQLIHDPVSPRGMVTRSSPGAGPSDHHSASRDERFKRRQLLRLQATERTMVREKENNPSGKKELSEVEKAKIRGSYLTVTLQRPTKELHGTSIVPKLQAITASSANLRHSPRVLVQHCPARTPQRGDEEGLGGEEEEEEEEEEEDDSAEEGGAARLNGRGSWAQDGDESWMQREVWMSVFRYLSRRELCECMRVCKTWYKWCCDKRLWTKIDLSRCKAIVPQALSGIIKRQPVSLDLSWTNISKKQLTWLVNRLPGLKDLLLAGCSWSAVSALSTSSCPLLRTLDLRWAVGIKDPQIRDLLTPPADKPGQDNRSKLRNMTDFRLAGLDITDATLRLIIRHMPLLSRLDLSHCSHLTDQSSNLLTAVGSSTRYSLTELNMAGCNKLTDQTLIYLRRIANVTLIDLRGCKQITRKACEHFISDLSINSLYCLSDEKLIQKIS

What follows are molecules tested against T1, SMYD3 (human (endogenous in D283)) (assay: affinity purification with mass spectrometry; nuclear extracts of D283 cells immunoprecipitated with anti-SMYD3 antibody; SMYD3-bound fractions analysed by LC-MS/MS).

binding, binds:
CCNB2 (from UniProt O95067 1-398)
cyclin D1 (from UniProt P24385 1-295)
B1
